Values from PubChem BioAssay AID686943 (Drosophila RNAi Screening Center, 2013).
In all, the deposit lists about 23,000 reagents; this is a random part of those with a known target gene and a result. 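Extra replicates exist only for a retested subset of genes; insulin dose and duration not given; both raised and lowered dpERK matter.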 Further read-outs or replicates are left out here. No sequences are given here. Not stated in the record: the amount of reagent, the time to read-out.

Screen: 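Search across the genome for regulators of signalling from receptor tyrosine kinase to ERK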 (primary screen)
Cells: Drosophila S2R+ haemocyte-like cells expressing YFP-tagged ERK (Rolled)
Reagent: long dsRNA against Drosophila genes
Conditions: insulin stimulation versus unstimulated cells; dose and duration not given
Measurement: 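Per-plate z-scores of phospho-ERK immunostaining normalised to YFP-tagged ERK, measured with and without insulin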
Reading the numbers: replicate 1, z-score of dpERK with insulin: higher = more active ERK per ERK-YFP after insulin

replicate 1, z-score of dpERK with insulin, by gene knocked down and reagent
kn: DRSC05505 1.22; DRSC05507 0.39; DRSC06196 -0.46; DRSC07637 -0.65; DRSC21533 0.12
Rab23: DRSC12305 -0.03
BomS3: DRSC21458 0.07
put: DRSC17039 -0.97
Cyp6a15Psi: DRSC07377 -0.03
Bbd: DRSC06709 0.2
CG9399: DRSC16488 0.08
Cog6: DRSC06806 0.54
ACXE: DRSC00847 -0.32
CG42633: DRSC16061 0.23
CG17930: DRSC15292 -0.46
Amnionless: DRSC00317 -0.5
pea: DRSC07120 2.73
CG9459: DRSC16496 1.01
CG14606: DRSC12550 0.57
CG5107: DRSC15716 0.43
Acox57D-d: DRSC04561 1.31
CG14545: DRSC14889 0.84
CG1142: DRSC12531 1.31
CR33315: DRSC22947 0.28
CG6962: DRSC16153 1.5
Capr: DRSC10346 2.34
CG13947: DRSC00365 0.63
CG1998: DRSC19829 0.39
CG15124: DRSC06546 0.08
CG15576: DRSC18064 0.36
trsn: DRSC06078 0.5
CG9331: DRSC03206 -0.24

Reformatted: results already given.
| gene knocked down | DRSC id | replicate 1, z-score of dpERK with insulin |
| --- | --- | --- |
| put | DRSC17039 | -0.97 |
| Cyp6a15Psi | DRSC07377 | -0.03 |
| Bbd | DRSC06709 | 0.2 |

Additional reagents:
replicate 1, z-score of dpERK with insulin, by gene knocked down and reagent
gammaTub23C: DRSC00820 -0.28
CG5174: DRSC06920 0.39
RhoGAP5A: DRSC18294 0.7
CG16952: DRSC19759 0.22
CG10713: DRSC09786 0.86
CG31689: DRSC00734 -0.56
CG17977: DRSC06700 0.69
TotB: DRSC15842 -0.71
jef: DRSC06198 0.43
Rbp1-like: DRSC19828 1.01; DRSC21938 -0.04; DRSC22075 0.1
Adsl: DRSC15500 -0.05
usp: DRSC18847 1.66
hgo: DRSC03544 1
ara: DRSC11322 -2.33
CG7024: DRSC18414 -0.89
nenya: DRSC13838 -0.07
CG5399: DRSC15791 -1.92
CG18420: DRSC01954 0.28
CG17047: DRSC06648 0.93
Ror: DRSC03414 0.05
Drep3: DRSC06312 -1.53; DRSC07529 -1.26; DRSC22344 0.49
CG30391: DRSC21572 0.14
CG5282: DRSC11775 0.63
lncRNA:CR34047: DRSC07857 1.01; DRSC21689 0.33
flip: DRSC12326 0.02
Tace: DRSC16340 0.51
TotA: DRSC13448 -0.17
Fip1: DRSC12147 0.84
CG8399: DRSC07163 -0.28
Gr28b: DRSC02291 0; DRSC02292 -0.13
ci: DRSC17172 -0.11
Mf: DRSC16120 0.33
YME1L: DRSC04378 -0.49
CG14238: DRSC14732 -1.5
CG2200: DRSC19840 0.01
